# Data as given in PubChem BioAssay AID743121 (NCATS, 2013)
# Purpose: 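Partners whose loss is lethal together with topoisomerase I blockade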 (primary screen)
# Cell system: MDA-MB-231 cells, a human breast cancer line
# Knock-down reagent: single siRNA against human genes, 20 nM siRNA (0.8 pmol per well)
# Time to read-out: 120 h (drug added 48 h after transfection, read 72 h later)
# Challenge: camptothecin 20 nM (about EC30) for 72 h; vehicle 0.1% DMSO in parallel plates
# Detection: 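Cell viability by ATP luminescence (CellTiter-Glo) as % of non-targeting siRNA wells, and the log2 ratio of viability without drug over viability with camptothecin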
# Reading the numbers: log2 vehicle/camptothecin viability: higher = stronger sensitisation to camptothecin; viability with camptothecin and viability without drug: higher = more viable cells
# Hit rule: 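Each gene scored by redundant siRNA activity (RSA) over its individual siRNA ratios; a gene is called active at p < 0.001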
# Shown is an unselected part of about 26,000 reagents tested. 167 of all reagents (0.63%) were called active. 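Calls are per gene from RSA p-values that are not deposited; an individual active-marked siRNA can sensitise only weakly.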 A number with no mark means an inactive call. Reagents against one gene are numbered here.
gene knocked down,reagent,log2 vehicle/camptothecin viability,viability with camptothecin (% of control),viability without drug (% of control)
MED17 (GeneID 9440),1,0.14,96.3,106
MED17 (GeneID 9440),2,0.672,9.93,15.8
MED17 (GeneID 9440),3,0.0893,72,76.6
TIA1 (GeneID 7072),1,0.167,67.2,75.4
TIA1 (GeneID 7072),2,-0.0885,124,117
TIA1 (GeneID 7072),3,-0.542,78,53.6
NUDT4 (GeneID 11163),1,0.299,86.3,106
NUDT4 (GeneID 11163),2,-0.0477,76.7,74.2
NUDT4 (GeneID 11163),3,0.106,84.3,90.7
NUDT4 (GeneID 11163),4,0.464,46.2,63.7
FSD2 (GeneID 123722),1,-0.0684,101,96.8
FSD2 (GeneID 123722),2,-0.0406,84.8,82.4
FSD2 (GeneID 123722),3,0.0663,84,87.9
FSD2 (GeneID 123722),4,0.0822,50.5,53.5

Copied from above for reference:
gene knocked down,reagent,log2 vehicle/camptothecin viability,viability with camptothecin (% of control),viability without drug (% of control)
NUDT4 (GeneID 11163),3,0.106,84.3,90.7
NUDT4 (GeneID 11163),4,0.464,46.2,63.7
FSD2 (GeneID 123722),1,-0.0684,101,96.8
FSD2 (GeneID 123722),2,-0.0406,84.8,82.4
FSD2 (GeneID 123722),3,0.0663,84,87.9

Further entries follow.
gene knocked down,reagent,log2 vehicle/camptothecin viability,viability with camptothecin (% of control),viability without drug (% of control)
ARHGAP17 (GeneID 55114),1,0.541,55.6,80.8
ARHGAP17 (GeneID 55114),2,-0.582,85.5,57.1
ARHGAP17 (GeneID 55114),3,-0.362,99.1,77.2
ARHGAP17 (GeneID 55114),4,-0.397,60.3,45.8
DUSP7 (GeneID 1849),1,0.173,87.9,99.1
DUSP7 (GeneID 1849),2,0.406,40.5,53.7
DUSP7 (GeneID 1849),3,-0.753,47.7,28.3
DUSP7 (GeneID 1849),4,-0.725,70.3,42.5
PARPBP (GeneID 55010),1,0.0902,35.6,37.9
PARPBP (GeneID 55010),2,0.206,67.9,78.4
PARPBP (GeneID 55010),3,-0.496,54.1,38.4
SLC22A7 (GeneID 10864),1,-0.339,64.2,50.7
SLC22A7 (GeneID 10864),2,0.832,25.3,44.9
SLC22A7 (GeneID 10864),3,-0.138,79.5,72.3
SLC22A7 (GeneID 10864),4,0.0674,85.8,89.9
